Some of these results come from one statement about several compounds together.
System: diabetic KKAy mice
Experiment: Glucose, insulin and triglyceride in diabetic KKAy mice treated with compounds
Format: in vivo

SMILES	plasma insulin level
O=C1NC(=O)C(Cc2ccc(OCC(=O)c3ccccc3)cc2)S1 (centres unmarked) [Compound 2, 5-[4-(2-oxo-2-phenylethoxy)benzyl]-1,3-thiazolidine-2,4-dione]	less than 5 ng/ml
O=C1NC(=O)C(Cc2ccc(OCC(=O)c3cccc(F)c3)cc2)S1 (centres unmarked) [Compound 5, 5-{4-[2-(3-fluorophenyl)-2-oxoethoxy]benzyl)-1,3-thiazolidine-2,4-dione]	less than 5 ng/ml
O=C1NC(=O)C(Cc2ccc(OCC(=O)c3ccc(F)cc3)cc2)S1 (centres unmarked) [Compound 3, 5-{4-[2-(4-fluorophenyl)-2-oxoethoxy]benzyl}-1,3-thiazolidine-2,4-dione]	less than 5 ng/ml
COc1cccc(C(=O)COc2ccc(CC3SC(=O)NC3=O)cc2)c1 (centres unmarked) [Compound 6, 5-{4-[2-(3-methoxyphenyl)-2-oxoethoxy]benzyl}-1,3-thiazolidine-2,4-dione]	less than 5 ng/ml
O=C1NC(=O)C(Cc2ccc(OCC(=O)c3ccccc3F)cc2)S1 (centres unmarked) [Compound 4, 5-{4-[2-(2-fluorophenyl)-2-oxoethoxy]benzyl}-1,3-thiazolidine-2,4-dione]	less than 5 ng/ml

Source: patent publication US20130211095A1, “NOVEL SYNTHESIS FOR THIAZOLIDINEDIONE COMPOUNDS” (Metabolic Solutions Development Company, LLC, priority 2010, published 2013)
